Like-named read-outs stand apart in the source and are kept apart here. No constants are given. Whether binding was seen depends on the method and setting. Binding seen in cells or lysates may run through a third protein. These calls come from enrichment with a bait or labelling near it, and not all partners need be listed.
Experiments:
[1] = biological target: rhesus (Rh) TRIM5-APEX2-V5 (rhesus macaque) (UniProt Q0PF16); test: proximity labelling
[2] = biological target: rhesus (Rh) TRIM5-APEX2-V5 (rhesus macaque) (UniProt Q0PF16); test: proximity labelling; remark: listed apart in the source

Amino acid sequences for entries named in this document (tags omitted). Residues count along the entry.
UniProt Q0PF16: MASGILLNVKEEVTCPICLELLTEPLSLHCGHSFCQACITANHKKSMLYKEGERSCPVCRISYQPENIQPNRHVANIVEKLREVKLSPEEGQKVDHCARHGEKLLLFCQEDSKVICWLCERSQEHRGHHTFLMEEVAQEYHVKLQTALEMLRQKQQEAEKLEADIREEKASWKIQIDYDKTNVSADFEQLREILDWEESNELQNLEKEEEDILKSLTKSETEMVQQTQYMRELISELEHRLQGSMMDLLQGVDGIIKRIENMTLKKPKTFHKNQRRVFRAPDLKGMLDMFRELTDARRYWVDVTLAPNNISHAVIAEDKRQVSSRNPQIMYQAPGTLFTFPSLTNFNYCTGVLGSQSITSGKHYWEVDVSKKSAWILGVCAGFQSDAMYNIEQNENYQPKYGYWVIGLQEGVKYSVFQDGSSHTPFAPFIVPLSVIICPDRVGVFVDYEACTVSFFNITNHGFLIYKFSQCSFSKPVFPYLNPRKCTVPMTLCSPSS
UniProt Q9UHD2: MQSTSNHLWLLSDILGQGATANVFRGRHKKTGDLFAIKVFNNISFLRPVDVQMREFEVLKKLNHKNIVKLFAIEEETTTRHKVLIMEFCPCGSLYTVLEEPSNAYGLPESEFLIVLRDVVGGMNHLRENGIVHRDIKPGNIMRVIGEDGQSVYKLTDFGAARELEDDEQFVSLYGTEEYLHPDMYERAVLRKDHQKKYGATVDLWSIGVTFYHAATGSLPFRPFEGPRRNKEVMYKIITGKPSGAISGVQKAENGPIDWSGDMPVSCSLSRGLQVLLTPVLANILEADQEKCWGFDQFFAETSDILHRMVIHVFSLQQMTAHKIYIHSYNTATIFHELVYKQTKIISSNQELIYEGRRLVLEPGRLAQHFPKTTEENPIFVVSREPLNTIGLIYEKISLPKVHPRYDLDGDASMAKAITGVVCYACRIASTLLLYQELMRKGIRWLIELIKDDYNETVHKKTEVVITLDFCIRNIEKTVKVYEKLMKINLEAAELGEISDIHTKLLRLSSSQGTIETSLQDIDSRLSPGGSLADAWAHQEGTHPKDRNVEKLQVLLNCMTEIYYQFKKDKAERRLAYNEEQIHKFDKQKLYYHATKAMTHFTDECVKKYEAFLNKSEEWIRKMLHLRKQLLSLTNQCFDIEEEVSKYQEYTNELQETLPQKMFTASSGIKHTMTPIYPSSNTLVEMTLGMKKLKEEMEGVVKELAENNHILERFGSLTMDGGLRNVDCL
UniProt P27824, residues 21-592: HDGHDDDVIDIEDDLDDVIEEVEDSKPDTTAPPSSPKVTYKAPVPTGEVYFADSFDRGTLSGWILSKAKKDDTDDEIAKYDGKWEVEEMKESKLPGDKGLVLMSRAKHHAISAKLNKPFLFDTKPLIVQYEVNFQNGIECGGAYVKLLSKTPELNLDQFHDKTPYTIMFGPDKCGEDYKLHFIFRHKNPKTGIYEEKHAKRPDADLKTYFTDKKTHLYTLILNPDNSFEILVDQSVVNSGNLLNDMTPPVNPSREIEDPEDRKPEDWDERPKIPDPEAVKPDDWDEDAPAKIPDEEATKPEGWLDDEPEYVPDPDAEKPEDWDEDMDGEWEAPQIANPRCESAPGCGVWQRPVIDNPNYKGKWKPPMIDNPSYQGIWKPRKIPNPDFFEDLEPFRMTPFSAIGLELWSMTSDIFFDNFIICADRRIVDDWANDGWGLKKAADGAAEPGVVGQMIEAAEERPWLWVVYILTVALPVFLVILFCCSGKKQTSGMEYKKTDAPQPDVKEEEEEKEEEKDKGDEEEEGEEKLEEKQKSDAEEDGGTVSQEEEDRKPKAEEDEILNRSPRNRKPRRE

Molecule | binding [1] | binding [2]
TBK1 (from UniProt Q9UHD2 1-729) (enzyme) | binds | 
Calnexin (from UniProt P27824 21-592) | binds | 
SAMM50 (protein, UniProt Q9Y512 1-469) MGTVHARSLEPLPSSGPDFGGLGEEAEFVEVEPEAKQEILENKDVVVQHVHFDGLGRTKDDIIICEIGDVFKAKNLIEVMRKSHEAREKLLRLGIFRQVDVLIDTCQGDDALPNGLDVTFEVTELRRLTGSYNTMVGNNEGSMVLGLKLPNLLGRAEKVTFQFSYGTKETSYGLSFFKPRPGNFERNFSVNLYKVTGQFPWSSLRETDRGMSAEYSFPIWKTSHTVKWEGVWRELGCLSRTASFAVRKESGHSLKSSLSHAMVIDSRNSSILPRRGALLKVNQELAGYTGGDVSFIKEDFELQLNKQLIFDSVFSASFWGGMLVPIGDKPSSIADRFYLGGPTSIRGFSMHSIGPQSEGDYLGGEAYWAGGLHLYTPLPFRPGQGGFGELFRTHFFLNAGNLCNLNYGEGPKAHIRKLAECIRWSYGAGIVLRLGNIARLELNYCVPMGVQTGDRICDGVQFGAGIRFL |  | binds
NIPSNAP1 (protein, UniProt Q9BPW8 36-284) SKDNEGSWFRSLFVHKVDPRKDAHSTLLSKKETSNLYKIQFHNVKPEYLDAYNSLTEAVLPKLHLDEDYPCSLVGNWNTWYGEQDQAVHLWRFSGGYPALMDCMNKLKNNKEYLEFRRERSQMLLSRRNQLLLEFSFWNEPQPRMGPNIYELRTYKLKPGTMIEWGNNWARAIKYRQENQEAVGGFFSQIGELYVVHHLWAYKDLQSREETRNAAWRKRGWDENVYYTVPLVRHMESRIMIPLKISPLQ |  | binds
NIPSNAP2 (protein, UniProt O75323 24-286) CSLLPRLRTWTSSSNRSREDSWLKSLFVRKVDPRKDAHSNLLAKKETSNLYKLQFHNVKPECLEAYNKICQEVLPKIHEDKHYPCTLVGTWNTWYGEQDQAVHLWRYEGGYPALTEVMNKLRENKEFLEFRKARSDMLLSRKNQLLLEFSFWNEPVPRSGPNIYELRSYQLRPGTMIEWGNYWARAIRFRQDGNEAVGGFFSQIGQLYMVHHLWAYRDLQTREDIRNAAWHKHGWEELVYYTVPLIQEMESRIMIPLKTSPLQ |  | binds
FAF2/UBXN3B (protein, UniProt Q96CS3 1-445) MAAPEERDLTQEQTEKLLQFQDLTGIESMDQCRHTLEQHNWNIEAAVQDRLNEQEGVPSVFNPPPSRPLQVNTADHRIYSYVVSRPQPRGLLGWGYYLIMLPFRFTYYTILDIFRFALRFIRPDPRSRVTDPVGDIVSFMHSFEEKYGRAHPVFYQGTYSQALNDAKRELRFLLVYLHGDDHQDSDEFCRNTLCAPEVISLINTRMLFWACSTNKPEGYRVSQALRENTYPFLAMIMLKDRRMTVVGRLEGLIQPDDLINQLTFIMDANQTYLVSERLEREERNQTQVLRQQQDEAYLASLRADQEKERKKREERERKRRKEEEVQQQKLAEERRRQNLQEEKERKLECLPPEPSPDDPESVKIIFKLPNDSRVERRFHFSQSLTVIHDFLFSLKESPEKFQIEANFPRRVLPCIPSEEWPNPPTLQEAGLSHTEVLFVQDLTDE |  | binds
TGF-beta activated kinase binding protein 1 (protein, UniProt Q15750 1-504) MAAQRRSLLQSEQQPSWTDDLPLCHLSGVGSASNRSYSADGKGTESHPPEDSWLKFRSENNCFLYGVFNGYDGNRVTNFVAQRLSAELLLGQLNAEHAEADVRRVLLQAFDVVERSFLESIDDALAEKASLQSQLPEGVPQHQLPPQYQKILERLKTLEREISGGAMAVVAVLLNNKLYVANVGTNRALLCKSTVDGLQVTQLNVDHTTENEDELFRLSQLGLDAGKIKQVGIICGQESTRRIGDYKVKYGYTDIDLLSAAKSKPIIAEPEIHGAQPLDGVTGFLVLMSEGLYKALEAAHGPGQANQEIAAMIDTEFAKQTSLDAVAQAVVDRVKRIHSDTFASGGERARFCPRHEDMTLLVRNFGYPLGEMSQPTPSPAPAAGGRVYPVSVPYSSAQSTSKTSVTLSLVMPSQGQMVNGAHSASTLDEATPTLTNQSPTLTLQSTNTHTQSSSSSSDGGLFRSRPAHSLPPGEDGRVEPYVDFAEFYRLWSVDHGEQSVVTAP |  | binds

Reference: doi:10.1101/2021.08.20.457143
